Test results from PubChem BioAssay AID2685 (National Center for Advancing Translational Sciences (NCATS), 2010).
The list shows a part of the results. Further columns of the screen follow, without active or inactive calls. The list favours compounds with an active or inconclusive main result. The note in brackets gives the kind of curve behind each potency; many fits are weak.

Assay: qHTS Assay for Lipid Storage Modulators in Drosophila S3 Cells;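 as to cell number change: cells counted by Cell Tracker Red CMTPX staining in the red channel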
Settings: BODIPY lipid droplet fluorescence, 18-24 h; for cell number change: measured here: cell count max response, cells fed with added oleic acid
How it was run: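 Drosophila S3 cells loaded with oleic acid (400 uM, as added) and compounds at several concentrations; lipid droplets imaged by 488-nm laser-scanning cytometry, 500–530 nm intensity and object ratio to cell channel. Percent activity normalized to 20 uM Triacsin C.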

[1] = measured here: lipid fluorescence (Fed channel) AC50, cells fed with added oleic acid
[2] = measured here: cell number channel AC50, cells fed with added oleic acid

Compound	cell number change [%]	AC50 [1]	AC50 [2]
COc1ccc(C(=O)Nc2nncs2)c(OC)c1	-0.759	4.61 µM [rising, full curve]	
Cc1nn(-c2ncc(C(F)(F)F)cc2Cl)c(=O)n1-c1ccc(F)cc1	-0.57	4.61 µM [rising, single point]	2.59 µM [rising, single point]
Cc1ccc(C)c(OCC(O)CN2CCC(Cc3ccccc3)CC2)c1 (stereo unspecified)	-11.8		
O=C(CN1CCOCC1)Nc1cc(C(F)(F)F)ccc1Cl	-19.9		4.11 µM [falling, partial curve, poor fit]
Cc1cc(N/N=C\c2ccc(Br)cc2)nc(-n2nc(C)cc2C)n1	-66.6	18.4 µM [falling, partial curve]	20.6 µM [falling, partial curve]
CCOC(=O)C1(CCOc2ccccc2)CCN(Cc2ccc(O)c(Cl)c2)CC1	18.9	0.00461 µM [falling, full curve, poor fit]	
CC(=O)N1CCN(S(=O)(=O)c2cccc(C(=O)N(Cc3ccccc3)c3cccc(C)c3)c2)CC1	39		3.66 µM [rising, partial curve, poor fit]
CCOc1ccc(CCNC(=O)c2ccc3nc(CC)c(CC)nc3c2)cc1	48	29.1 µM [rising, single point]	29.1 µM [rising, single point]
COCCn1c(SCC(=O)NCc2ccc3c(c2)OCO3)nnc1-c1c[nH]c2ccccc12	34.7	9.2 µM [rising, partial curve, poor fit]	5.8 µM [rising, full curve, poor fit]
C=CCNc1nnc(Cc2ccc(C(C)C)cc2)c(=O)[nH]1		0.0366 µM [rising, full curve, poor fit]	
Cc1cc(C)c(C#N)c(Sc2nnnn2-c2ccccc2)n1		5.17 µM [rising, partial curve]	
O=C(/C=C/c1ccco1)Nc1ccccc1C(=O)Nc1cccc(C(=O)O)c1	17		
COc1ccc(C(CNC(=O)CCOc2ccccc2)N(C)C)cc1 (stereo unspecified)	54		29.1 µM [rising, single point]
CC[C@H](C)[C@H](NC(=O)OCc1ccccc1)C(=O)Nc1ccc(NC(C)=O)cc1			3.26 µM [rising, single point]
Cc1cc(C)c(NC(=O)CNC(=O)CSc2nnc(N)s2)c(C)c1	-6.02		
Cc1ccc2c(Cl)cc(Cl)c(OCC(=O)NC(C)(C)C)c2n1	9.34		4.61 µM [rising, single point]
C=CCc1cccc2cc(C(=O)OCC(=O)c3ccccc3)c(=O)oc12			1.46 µM [rising, partial curve]
O=C(CCC(=O)OCCCC(F)(F)C(F)(F)F)Nc1ccccc1	4.98		
O=C(Nc1cccc(S(=O)(=O)N2CCCCC2)c1)C1=NN(c2ccccc2)C(=O)CC1	-9.83	8.2 µM [falling, partial curve, poor fit]	
COc1ccc(-c2nc3ccccc3c(=O)o2)cc1OC	-28.5	25.9 µM [falling, partial curve]	
CC(Nc1ccc(Br)cc1)C(=O)N/N=C/c1ccccc1OCc1ccccc1 (stereo unspecified)			1.84 µM [rising, partial curve, poor fit]

Compound	cell number change [%]	AC50 [1]	AC50 [2]
O=C1CCC(C(=O)Nc2nnc(C3CC3)s2)=NN1			1.46 µM [rising, partial curve, poor fit]
COc1ccc(CCNC(=O)CCC(=O)N2CC(C)Oc3ccccc32)cc1OC (stereo unspecified)	-16.7		
CC(Sc1ccc(Cl)cc1)C(=O)NCc1cccnc1 (stereo unspecified)	93.2	8.2 µM [rising, partial curve]	10.3 µM [rising, partial curve]
Cc1ccc(NC(=O)c2ccc3c(SCC(=O)O)c4c(nc3c2)CCCC4)c(Br)c1	-39		32.6 µM [falling, single point]
Cc1cc2cc(CNC(=O)c3ccc(S(=O)(=O)N(C)C)cc3)ccc2n1C		20.6 µM [rising, partial curve]	
COC(=O)c1cc(C(=O)N2CCN(c3cccc(C)c3C)CC2)cc([N+](=O)[O-])c1	30.1		
CN(CCO)C(=O)c1cccc2c1-c1ccccc1C2=O	5.27	0.291 µM [falling, full curve]	
O=C(NCCc1ccccc1Cl)C1CCN(S(=O)(=O)c2cccs2)CC1	5.97	0.58 µM [rising, single point]	0.082 µM [rising, full curve, poor fit]
C=CCn1c(SCc2csc(-c3ccc(Cl)cc3)n2)nnc1-c1ccccc1OC	-33.1	29.1 µM [falling, single point]	29.1 µM [falling, single point]
CC(=O)c1c(C)[nH]c(C(=O)OCC(=O)NCCc2ccc(F)cc2)c1C	-22.3	16.4 µM [falling, partial curve, poor fit]	
Cc1cc(C)c(C#N)c(N2CCN(Cc3ccc4c(c3)OCO4)CC2)n1	0.87	7.31 µM [rising, partial curve]	
CCOCC(=O)Nc1nc2ccc(OCC)cc2s1		0.651 µM [rising, single point]	
CC(C)NC(=O)c1cc(-c2ccc3c(c2)OCO3)on1			0.146 µM [rising, full curve, poor fit]
Clc1ccccc1OCc1nc(-c2ccncc2)no1	-5.8	0.651 µM [rising, partial curve]	
Cc1cc(-c2cc(C(=O)NCc3ccccc3)on2)nc(NC2CCCC2)n1	3.87	3.66 µM [rising, partial curve, poor fit]	
COc1cc(CC(=O)NCCc2ccc(S(N)(=O)=O)cc2)cc(OC)c1OC	-47.7	4.11 µM [falling, full curve]	1.16 µM [falling, full curve]
Cc1ccc(-c2nnc(NC(=O)c3ccco3)o2)c(C)c1			2.06 µM [falling, partial curve]
CSc1nnc2n(-c3ccccc3)c(=O)c3c4c(sc3n12)CCC4	-10.7		
Cc1nc(NC(=O)CN2CCCCC2)sc1C(=O)N(C)C	-8.99	32.6 µM [rising, single point]	
CC1(C(=O)O)CCC(C(=O)Nc2ccc(OC(F)(F)Cl)cc2)C1(C)C (stereo unspecified)	2.84		
Cc1cc(S(N)(=O)=O)c(N)c(S(N)(=O)=O)c1	-18.1	0.651 µM [falling, single point]	

Single values from above:
Under cell number change [%], `CC1(C(=O)O)CCC(C(=O)Nc2ccc(OC(F)(F)Cl)cc2)C1(C)C` (stereo unspecified) is entered as 2.84
Under cell number change [%], `CSc1nnc2n(-c3ccccc3)c(=O)c3c4c(sc3n12)CCC4` is entered as -10.7

(cont.)

Compound	cell number change [%]	AC50 [1]	AC50 [2]
O=c1[nH]c(CN2CCCCC2)nc2ccccc12	18.1		
COc1ccc(NS(=O)(=O)c2cccc(C(=O)Nc3cccc(C(=O)O)c3)c2)cc1	11.1	0.58 µM [rising, single point]	
CCn1cc(CN2CCCC(C(=O)Nc3ccc(-c4cscn4)cc3)C2)cn1 (stereo unspecified)	14.4	7.31 µM [rising, partial curve, poor fit]	
CC(=O)Nc1ccc(S(=O)(=O)NNC(=O)c2cc3c4ccccc4n(C)c3s2)cc1	152	1.84 µM [rising, partial curve]	13 µM [rising, partial curve]
CCOC(=O)/C(=C\c1ccc(OC)c(OC)c1)C(=O)c1cccnc1		29.1 µM [falling, single point]	
c1csc(-c2nn3c(-c4ccncc4)nnc3s2)c1	2.3	18.4 µM [rising, single point]	
CCc1nc(N2CCC3(CC2)OCCO3)c2nnn(Cc3ccccc3)c2n1	47.4	3.26 µM [rising, partial curve, poor fit]	0.731 µM [rising, full curve]
CCN1C(Nc2ccccc2)=NC[C@@H]1Cc1ccccc1		25.9 µM [falling, single point]	
CCCCNC(=O)CCc1c(C)nc2c(c(C)nn2-c2ccccc2)c1C	8.45	6.51 µM [falling, partial curve]	0.092 µM [rising, full curve, poor fit]
CC1CCN(C(=O)CC(NC(=O)c2ccccc2Cl)c2ccccc2)CC1 (stereo unspecified)	9.25	16.4 µM [rising, single point]	
O=C(NCC1CCCO1)Nc1cc(Cl)cc(Cl)c1 (stereo unspecified)	152		18.4 µM [rising, partial curve]
Cc1ccc(CCNC(=O)CSCc2ccc(F)cc2)cc1	-31.2	29.1 µM [falling, single point]	
CCc1cc2c(N=Nc3c(O)[nH]c4ccccc34)ncnc2s1	39.4		16.4 µM [rising, single point]
N#Cc1nc(Cl)c(Cl)c(NN)c1Cl	36.8	1.3 µM [rising, full curve]	0.92 µM [rising, full curve]
CNC(=O)c1ccc(NC(=O)CCNC(=O)Nc2ccccc2)cc1	-4		
O=C(Nc1ccccc1)C1=C(N2CCOCC2)/C(=C/c2cccnc2)CC1			0.461 µM [rising, full curve]
CCC(C)NC(=O)CSc1nnc(-c2ccc(OC)c(OC)c2)c(-c2ccc(OC)c(OC)c2)n1 (stereo unspecified)	5	2.59 µM [rising, single point]	
Cc1cc2ncn(C3CC(=O)N(Cc4ccccc4)C3=O)c2cc1C (stereo unspecified)		4.11 µM [rising, single point]	3.26 µM [rising, single point]
CCOC(=O)C1CCCN(C(=O)CCCn2nnnc2CN2CCOCC2)C1 (stereo unspecified)	-6.1	2.91 µM [rising, single point]	
